Counter-ions that a name gives are not always drawn. Some of the results follow. Most entries show no effect beyond the scatter of the controls.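 Differential scanning fluorimetry gave melting temperatures in a one-replicate pilot screen of a library of approved drugs plus clinical or known-target compounds. Hits increasing melting point at least 2 °C were the strongest stabilizers, while negative shifts signify destabilization.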
The compounds below were run on SARS-CoV-2 main protease (Mpro, nsp5) (assay: thermal shift ΔTm of Mpro relative to plate average Tm; higher = stronger thermal stabilization of Mpro (binding)). Settings: 10 µM; protein concentration 1 µM.

Row | Structure (SMILES) | thermal shift ΔTm of Mpro
1 | COc1cc(-c2c(C)cc(O)cc2O[C@@H]2O[C@H](CO)[C@@H](O)[C@H](O)[C@H]2O)oc(=O)c1 [Aloenin A] | -0.0273 °C
2 | O=C1c2c(O)cc(O)cc2O[C@H](c2ccc(O)c(O)c2)[C@H]1O [(+)-Taxifolin] | -0.95 °C
3 | O=C1c2c(O)cc(O)cc2OC(c2ccc(O)c(O)c2)C1O (stereo not given) [Taxifolin (Dihydroquercetin)] | -1.25 °C
4 | CN(C)CCCOc1nn(Cc2ccccc2)c2ccccc12 [Benzydamine HCl] | -0.0855 °C
5 | COc1ccc(Nc2nccc(NCCO)n2)cc1 [Cardiogenol C hydrochloride] | 0.266 °C
6 | CC(C)(O)CC[C@@H](O)[C@](C)(O)[C@H]1CC[C@@]2(O)C3=CC(=O)[C@@H]4C[C@@H](O)[C@@H](O)C[C@]4(C)[C@H]3CC[C@]12C [20-Hydroxyecdysone] | -0.00772 °C
7 | CNC(=O)c1nn(C)c2c1C(C)(C)Cc1cnc(Nc3ccc(N4CCN(C)CC4)cc3)nc1-2 | -0.226 °C
8 | O=C(O)CCN1C(=O)/C(=C/c2ccc(-c3ccc([N+](=O)[O-])cc3)o2)SC1=S | -0.000678 °C
9 | Cc1cc(N2C[C@@H](C)N[C@@H](C)C2)ncc1-c1ccc(-c2nc3c(ccn3C)c(=O)[nH]2)cc1 | -0.0544 °C
10 | O=C(/C=C/c1ccc2ccc(C(F)(F)F)cc2n1)c1ccncc1 | -0.0141 °C
11 | CN1CCN(c2cccc(Nc3nc4c(-c5ccc(S(C)(=O)=O)cc5)cccn4n3)c2)CC1 | 0.0758 °C
12 | CN(Cc1ccccc1)C(=O)C1CCCN(Cc2ccc(C(F)(F)F)cc2)C1 (stereo not given) [T.cruzi Inhibitor] | 0.0174 °C
13 | COc1cc2nc(N3CCN(C(=O)C4CCCO4)CC3)nc(N)c2cc1OC (stereo not given) [Terazosin hydrochloride] | -0.16 °C
14 | COc1cc2nc(N3CCN(C(=O)C4CCCO4)CC3)nc(N)c2cc1OC (stereo not given) [Terazosin HCl] | 0.117 °C
15 | Nc1ncnc2c1c(-c1ccc(Oc3ccccc3)cc1)nn2C1CCCC1 | -0.353 °C
16 | NC(=O)[C@@H]1CC[C@@H]2CN1C(=O)N2OS(=O)(=O)O [Avibactam sodium] | 0.0705 °C
17 | CN[C@@H](C)C(=O)N[C@H](C(=O)N1CCC[C@H]1C(=O)Nc1snnc1-c1ccccc1)C1CCCCC1 | -0.107 °C
18 | CN(C)C/C=C/C(=O)Nc1ccc(C(=O)N2CCC[C@@H](Nc3ncc(Cl)c(-c4c[nH]c5ccccc45)n3)C2)cc1 | -0.0686 °C
19 | COC(=O)[C@@H](N)Cc1cnc[nH]1 [Methyl L-histidinate dihydrochloride] | -0.0787 °C
20 | Cc1ccc(C2=Nc3ccc(Cl)cc3OC2)cc1 | -0.0996 °C
21 | COc1cc(OC)c(C=C2C(=O)Nc3ccccc32)c(OC)c1 | 0.158 °C
22 | CN1CCCCC1CCN1c2ccccc2Sc2ccc([S+](C)[O-])cc21 (stereo not given) [Mesoridazine Besylate] | -0.0415 °C
23 | CC(=O)OCOC(=O)CN(CC(=O)OCOC(C)=O)c1ccccc1OCCOc1ccccc1N(CC(=O)OCOC(C)=O)CC(=O)OCOC(C)=O | -0.224 °C
24 | O=S(=O)(c1ccccc1)c1cnc2c(N3CCNCC3)cccc2c1 | -0.109 °C
25 | COc1ccc(-n2c(C)c([N+](=O)[O-])c3ccc(O)cc32)cc1 | -0.214 °C

Rewritten tab-delimited: part of the list above.
Row	Structure (SMILES)	thermal shift ΔTm of Mpro
1	COc1cc(-c2c(C)cc(O)cc2O[C@@H]2O[C@H](CO)[C@@H](O)[C@H](O)[C@H]2O)oc(=O)c1 [Aloenin A]	-0.0273 °C
2	O=C1c2c(O)cc(O)cc2O[C@H](c2ccc(O)c(O)c2)[C@H]1O [(+)-Taxifolin]	-0.95 °C
3	O=C1c2c(O)cc(O)cc2OC(c2ccc(O)c(O)c2)C1O (stereo not given) [Taxifolin (Dihydroquercetin)]	-1.25 °C
4	CN(C)CCCOc1nn(Cc2ccccc2)c2ccccc12 [Benzydamine HCl]	-0.0855 °C
10	O=C(/C=C/c1ccc2ccc(C(F)(F)F)cc2n1)c1ccncc1	-0.0141 °C
11	CN1CCN(c2cccc(Nc3nc4c(-c5ccc(S(C)(=O)=O)cc5)cccn4n3)c2)CC1	0.0758 °C
12	CN(Cc1ccccc1)C(=O)C1CCCN(Cc2ccc(C(F)(F)F)cc2)C1 (stereo not given) [T.cruzi Inhibitor]	0.0174 °C
13	COc1cc2nc(N3CCN(C(=O)C4CCCO4)CC3)nc(N)c2cc1OC (stereo not given) [Terazosin hydrochloride]	-0.16 °C
15	Nc1ncnc2c1c(-c1ccc(Oc3ccccc3)cc1)nn2C1CCCC1	-0.353 °C
18	CN(C)C/C=C/C(=O)Nc1ccc(C(=O)N2CCC[C@@H](Nc3ncc(Cl)c(-c4c[nH]c5ccccc45)n3)C2)cc1	-0.0686 °C
20	Cc1ccc(C2=Nc3ccc(Cl)cc3OC2)cc1	-0.0996 °C
21	COc1cc(OC)c(C=C2C(=O)Nc3ccccc32)c(OC)c1	0.158 °C
23	CC(=O)OCOC(=O)CN(CC(=O)OCOC(C)=O)c1ccccc1OCCOc1ccccc1N(CC(=O)OCOC(C)=O)CC(=O)OCOC(C)=O	-0.224 °C
25	COc1ccc(-n2c(C)c([N+](=O)[O-])c3ccc(O)cc32)cc1	-0.214 °C

Next results:

Row | Structure (SMILES) | thermal shift ΔTm of Mpro
26 | COc1ccc(C2(CNC(=O)c3ccc(NC(=O)c4ccco4)cc3)CCOCC2)cc1 | -0.011 °C
27 | O=C(O[C@H]1CN2CCC1CC2)N1CCc2ccccc2[C@@H]1c1ccccc1 [Solifenacin succinate] | -0.173 °C
28 | NC(=O)N/N=C/c1ccc([N+](=O)[O-])o1 [Nitrofural] | 0.0688 °C
29 | CC1=CC(=O)NS(=O)(=O)O1 [Acesulfame Potassium] | -0.11 °C
30 | CCCC(=O)Nc1ncnc2c1ncn2[C@@H]1O[C@@H]2COP(=O)(O)O[C@H]2[C@H]1OC(=O)CCC [Dibutyryl-cAMP (Bucladesine)] | -0.147 °C
31 | CN(C)CCC[C@@]1(c2ccc(F)cc2)OCc2cc(C#N)ccc21 [Escitalopram Oxalate] | 0.105 °C
32 | O=C(CNC(=O)c1ccc(Cl)cc1)NO [Benurestat] | 0.179 °C
33 | CN1CCCC(n2nc(Cc3ccc(Cl)cc3)c3ccccc3c2=O)CC1 (stereo not given) [Azelastine HCl] | -0.0897 °C
34 | CCN1CCN(C(=O)N[C@@H](C(=O)N[C@@H]2C(=O)N3[C@@H]2SC(C)(C)[C@@H]3C(=O)O)c2ccccc2)C(=O)C1=O [Piperacillin Sodium] | -0.113 °C
35 | CN(NC(=O)CC(=O)NN(C)C(=S)c1ccccc1)C(=S)c1ccccc1 [Elesclomol (STA-4783)] | 0.0338 °C
36 | O=C(O)c1cccc(N=Nc2c(O)[nH]c3ccc(S(=O)(=O)NCc4ccc(F)cc4)cc23)c1 | -0.0221 °C
37 | C[C@]12N[C@H](Cc3ccccc31)c1ccccc12 [MK-801 (Dizocilpine)] | 0.0162 °C
38 | O=Nc1c(-c2c(O)[nH]c3cc(Br)ccc23)[nH]c2ccccc12 | 0.581 °C
39 | CCCCc1nc2ccc(NC(=O)NC3CCCCC3)cc2n1Cc1ccc(-c2ccccc2C(=O)O)cc1 | -0.0318 °C
40 | CO[C@@H]1[C@@H](OC(N)=O)[C@@H](O)[C@H](Oc2ccc3c(O)c(NC(=O)c4ccc(O)c(CC=C(C)C)c4)c(=O)oc3c2C)OC1(C)C [Novobiocin Sodium] | 0.0418 °C
41 | CC1(C)OC(=O)NC1=O [5,5-Dimethyloxazolidine-2,4-dione] | 0.176 °C
42 | C[C@H](Nc1ncnc2[nH]cnc12)c1nc2ccc(F)cc2c(=O)n1-c1ccccc1 [Acalisib] | 0.0676 °C
43 | CNc1nc(Nc2cnn(C3CCN(C4COC4)CC3F)c2Cl)ncc1C(F)(F)F (stereo not given) | -0.224 °C
44 | CCCCNNC(=O)c1ccc(Br)cc1 | 0.0262 °C
45 | CCC[C@H](N[C@@H](C)C(=O)N1[C@H](C(=O)O)C[C@@H]2CCCC[C@@H]21)C(=O)OCC [Perindopril erbumine] | 0.0716 °C
46 | Fc1ccc(-c2nc3n(c2-c2ccncc2)CCS3)cc1 | 0.143 °C
47 | CCCC(=O)O[C@]1(C(=O)COC(C)=O)CC[C@H]2[C@@H]3C[C@H](F)C4=CC(=O)C=C[C@]4(C)[C@@]3(F)[C@@H](O)C[C@@]21C [Difluprednate] | -0.141 °C
48 | COc1ccc(NS(=O)(=O)c2ccc(N)cc2)nn1 [Sulfamethoxypyridazine] | -0.0912 °C
49 | Nc1ccc(C(=O)NCC(=O)O)cc1 [Sodium 4-aminohippurate Hydrate] | -0.225 °C
50 | Nc1ccc(C(=O)NCC(=O)O)cc1 [4-Aminohippuric Acid] | -0.0637 °C
